# Values quoted from earlier work in article PMC12294558, “New 1,2,4-Triazole Derivatives with a N-Mannich Base Structure Based on a 4,6-Dimethylpyridine Scaffold as Anticancer Agents: Design, Synthesis, Biological Evaluation, and Molecular Modeling” (International Journal of Molecular Sciences, 2025).
# pIC50: −log10 of the molar value.
# System: HepG2 cells
# Design: method as in PMID 36181443
# Settings: cited from earlier work
smiles,measurement,value
"COc1cccc2c1C(=O)c1c(O)c3c(c(O)c1C2=O)C[C@@](O)(C(=O)CO)C[C@@H]3O[C@H]1C[C@H](N)[C@H](O)[C@H](C)O1 [Doxorubicin, doxorubicin]",pIC50,5.35
